From publication PMC12847834
Results are given in words; binding and its absence hold for the method and conditions named. In cells and extracts the contact can be indirect. Some entries that bind do so weakly or less than the wild type. For some of these results: Tags and fused reporters may be left off the sequences shown. One block for each substance: values may come before it.

By UniProt entry, the sequences of proteins in these tests, tags left out. Where a name states a change or a piece, a line headed by the entry shows the natural chain unless it says otherwise.
UniProt Q93009: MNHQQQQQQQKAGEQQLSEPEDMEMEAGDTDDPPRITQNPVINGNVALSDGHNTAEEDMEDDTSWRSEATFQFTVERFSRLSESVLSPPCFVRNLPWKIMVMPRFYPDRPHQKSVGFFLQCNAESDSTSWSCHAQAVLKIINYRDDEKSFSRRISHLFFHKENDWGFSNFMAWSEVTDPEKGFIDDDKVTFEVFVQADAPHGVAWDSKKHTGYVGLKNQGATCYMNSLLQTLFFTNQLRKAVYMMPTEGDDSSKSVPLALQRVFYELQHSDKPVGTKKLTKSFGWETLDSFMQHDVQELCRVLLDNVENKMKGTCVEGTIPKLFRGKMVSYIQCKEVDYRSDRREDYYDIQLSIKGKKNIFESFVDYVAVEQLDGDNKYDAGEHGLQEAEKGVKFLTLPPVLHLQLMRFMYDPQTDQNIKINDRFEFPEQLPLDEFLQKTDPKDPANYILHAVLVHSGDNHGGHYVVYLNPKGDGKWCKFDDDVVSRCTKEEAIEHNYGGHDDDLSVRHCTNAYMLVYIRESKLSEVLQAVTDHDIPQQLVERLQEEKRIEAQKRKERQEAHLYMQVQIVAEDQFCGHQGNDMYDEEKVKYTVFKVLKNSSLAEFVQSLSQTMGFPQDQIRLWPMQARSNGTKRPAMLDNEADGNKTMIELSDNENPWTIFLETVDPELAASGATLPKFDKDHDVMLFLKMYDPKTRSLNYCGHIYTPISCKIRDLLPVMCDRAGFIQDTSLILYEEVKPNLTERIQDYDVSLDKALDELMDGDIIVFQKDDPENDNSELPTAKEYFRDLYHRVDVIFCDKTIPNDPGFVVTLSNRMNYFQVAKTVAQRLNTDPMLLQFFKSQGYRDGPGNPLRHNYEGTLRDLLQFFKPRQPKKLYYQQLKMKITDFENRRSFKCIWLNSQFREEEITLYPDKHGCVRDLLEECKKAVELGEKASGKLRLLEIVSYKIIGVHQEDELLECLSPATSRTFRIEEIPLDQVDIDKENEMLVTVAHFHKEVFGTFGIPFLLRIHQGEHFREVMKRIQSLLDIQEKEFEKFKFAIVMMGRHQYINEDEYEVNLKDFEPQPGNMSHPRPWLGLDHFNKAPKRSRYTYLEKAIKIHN

Legend:
[1] = target: T1, Flag-KDM4A (full-length lysine demethylase 4A) (UniProt O75164); test: co-IP; HEK293T cells co-transfected with HA-USP7 and Flag-KDM4A constructs (full length and fragments); co-IP and Western blot
T1 sequence: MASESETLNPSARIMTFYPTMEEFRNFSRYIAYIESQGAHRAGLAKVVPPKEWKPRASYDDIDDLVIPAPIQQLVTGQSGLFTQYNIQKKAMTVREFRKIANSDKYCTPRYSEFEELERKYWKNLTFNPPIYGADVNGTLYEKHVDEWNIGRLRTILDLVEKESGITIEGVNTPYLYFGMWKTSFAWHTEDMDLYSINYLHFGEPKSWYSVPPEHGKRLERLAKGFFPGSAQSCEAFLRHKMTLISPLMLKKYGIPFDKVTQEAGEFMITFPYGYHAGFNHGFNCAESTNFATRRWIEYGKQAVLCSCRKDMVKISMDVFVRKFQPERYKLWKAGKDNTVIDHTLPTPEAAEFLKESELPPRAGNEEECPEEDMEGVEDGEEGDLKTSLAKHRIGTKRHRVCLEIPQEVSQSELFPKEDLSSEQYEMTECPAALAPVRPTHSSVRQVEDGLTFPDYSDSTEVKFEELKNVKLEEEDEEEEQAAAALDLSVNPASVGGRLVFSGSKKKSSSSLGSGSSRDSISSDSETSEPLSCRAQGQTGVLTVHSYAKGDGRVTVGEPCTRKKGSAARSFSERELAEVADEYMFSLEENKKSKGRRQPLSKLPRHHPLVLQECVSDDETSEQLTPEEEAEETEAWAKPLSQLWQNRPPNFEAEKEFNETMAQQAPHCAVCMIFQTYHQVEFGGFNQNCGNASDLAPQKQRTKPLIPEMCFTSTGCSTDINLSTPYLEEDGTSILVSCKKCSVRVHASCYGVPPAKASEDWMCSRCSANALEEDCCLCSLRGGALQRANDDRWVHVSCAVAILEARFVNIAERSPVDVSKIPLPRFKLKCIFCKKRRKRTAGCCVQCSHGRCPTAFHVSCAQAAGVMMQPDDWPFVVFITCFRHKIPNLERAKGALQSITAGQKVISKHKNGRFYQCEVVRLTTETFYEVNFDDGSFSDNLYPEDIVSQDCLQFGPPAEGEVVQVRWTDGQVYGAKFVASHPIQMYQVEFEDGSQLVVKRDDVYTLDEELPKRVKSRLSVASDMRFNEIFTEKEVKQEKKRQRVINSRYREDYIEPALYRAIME

GST-KDM4A, recombinant = target: T2, GST-KDM4A, recombinant (UniProt O75164); test: pull-down; purified recombinant GST-KDM4A with lysates of HEK293T cells transfected with HA-USP7; Western blot with GST-tag and HA-tag antibodies; GST-NC (empty vector) as negative control; only the target purified
T2 sequence: T1 sequence

[2] = target: T3, Flag-KDM4A 886-1064aa fragment (UniProt O75164); test: co-IP; HEK293T cells co-transfected with HA-USP7 and Flag-KDM4A constructs (full length and fragments); co-IP and Western blot
T3 sequence: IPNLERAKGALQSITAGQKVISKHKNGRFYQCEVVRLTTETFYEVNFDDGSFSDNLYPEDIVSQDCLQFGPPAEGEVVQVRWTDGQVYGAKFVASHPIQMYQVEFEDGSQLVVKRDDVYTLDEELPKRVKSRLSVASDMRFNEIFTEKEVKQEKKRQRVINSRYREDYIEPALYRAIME

[3] = target: T4, KDM4A (lysine demethylase 4A), endogenous (human (endogenous in T24 and 5637)) (UniProt O75164); test: co-IP; T24 and 5637 cell lysates; IP with IgG (control) versus KDM4A or USP7 antibody; Western blot
T4 sequence: T1 sequence

binding [1]: binds
Substance: HA-USP7 561-1102aa fragment (from UniProt Q93009 561-1102) (domain or fragment)

binding (GST-KDM4A, recombinant): binds
binding [2]: binds
Substance: HA-USP7 (full-length) (from UniProt Q93009 1-1102)

binding [3]: binds
Substance: USP7 (ubiquitin-specific processing protease 7), endogenous (from UniProt Q93009 1-1102)
